Results as given in publication PMC5702604.

The chains behind the UniProt entries cited, without tags or fusion partners.
UniProt E2JF22: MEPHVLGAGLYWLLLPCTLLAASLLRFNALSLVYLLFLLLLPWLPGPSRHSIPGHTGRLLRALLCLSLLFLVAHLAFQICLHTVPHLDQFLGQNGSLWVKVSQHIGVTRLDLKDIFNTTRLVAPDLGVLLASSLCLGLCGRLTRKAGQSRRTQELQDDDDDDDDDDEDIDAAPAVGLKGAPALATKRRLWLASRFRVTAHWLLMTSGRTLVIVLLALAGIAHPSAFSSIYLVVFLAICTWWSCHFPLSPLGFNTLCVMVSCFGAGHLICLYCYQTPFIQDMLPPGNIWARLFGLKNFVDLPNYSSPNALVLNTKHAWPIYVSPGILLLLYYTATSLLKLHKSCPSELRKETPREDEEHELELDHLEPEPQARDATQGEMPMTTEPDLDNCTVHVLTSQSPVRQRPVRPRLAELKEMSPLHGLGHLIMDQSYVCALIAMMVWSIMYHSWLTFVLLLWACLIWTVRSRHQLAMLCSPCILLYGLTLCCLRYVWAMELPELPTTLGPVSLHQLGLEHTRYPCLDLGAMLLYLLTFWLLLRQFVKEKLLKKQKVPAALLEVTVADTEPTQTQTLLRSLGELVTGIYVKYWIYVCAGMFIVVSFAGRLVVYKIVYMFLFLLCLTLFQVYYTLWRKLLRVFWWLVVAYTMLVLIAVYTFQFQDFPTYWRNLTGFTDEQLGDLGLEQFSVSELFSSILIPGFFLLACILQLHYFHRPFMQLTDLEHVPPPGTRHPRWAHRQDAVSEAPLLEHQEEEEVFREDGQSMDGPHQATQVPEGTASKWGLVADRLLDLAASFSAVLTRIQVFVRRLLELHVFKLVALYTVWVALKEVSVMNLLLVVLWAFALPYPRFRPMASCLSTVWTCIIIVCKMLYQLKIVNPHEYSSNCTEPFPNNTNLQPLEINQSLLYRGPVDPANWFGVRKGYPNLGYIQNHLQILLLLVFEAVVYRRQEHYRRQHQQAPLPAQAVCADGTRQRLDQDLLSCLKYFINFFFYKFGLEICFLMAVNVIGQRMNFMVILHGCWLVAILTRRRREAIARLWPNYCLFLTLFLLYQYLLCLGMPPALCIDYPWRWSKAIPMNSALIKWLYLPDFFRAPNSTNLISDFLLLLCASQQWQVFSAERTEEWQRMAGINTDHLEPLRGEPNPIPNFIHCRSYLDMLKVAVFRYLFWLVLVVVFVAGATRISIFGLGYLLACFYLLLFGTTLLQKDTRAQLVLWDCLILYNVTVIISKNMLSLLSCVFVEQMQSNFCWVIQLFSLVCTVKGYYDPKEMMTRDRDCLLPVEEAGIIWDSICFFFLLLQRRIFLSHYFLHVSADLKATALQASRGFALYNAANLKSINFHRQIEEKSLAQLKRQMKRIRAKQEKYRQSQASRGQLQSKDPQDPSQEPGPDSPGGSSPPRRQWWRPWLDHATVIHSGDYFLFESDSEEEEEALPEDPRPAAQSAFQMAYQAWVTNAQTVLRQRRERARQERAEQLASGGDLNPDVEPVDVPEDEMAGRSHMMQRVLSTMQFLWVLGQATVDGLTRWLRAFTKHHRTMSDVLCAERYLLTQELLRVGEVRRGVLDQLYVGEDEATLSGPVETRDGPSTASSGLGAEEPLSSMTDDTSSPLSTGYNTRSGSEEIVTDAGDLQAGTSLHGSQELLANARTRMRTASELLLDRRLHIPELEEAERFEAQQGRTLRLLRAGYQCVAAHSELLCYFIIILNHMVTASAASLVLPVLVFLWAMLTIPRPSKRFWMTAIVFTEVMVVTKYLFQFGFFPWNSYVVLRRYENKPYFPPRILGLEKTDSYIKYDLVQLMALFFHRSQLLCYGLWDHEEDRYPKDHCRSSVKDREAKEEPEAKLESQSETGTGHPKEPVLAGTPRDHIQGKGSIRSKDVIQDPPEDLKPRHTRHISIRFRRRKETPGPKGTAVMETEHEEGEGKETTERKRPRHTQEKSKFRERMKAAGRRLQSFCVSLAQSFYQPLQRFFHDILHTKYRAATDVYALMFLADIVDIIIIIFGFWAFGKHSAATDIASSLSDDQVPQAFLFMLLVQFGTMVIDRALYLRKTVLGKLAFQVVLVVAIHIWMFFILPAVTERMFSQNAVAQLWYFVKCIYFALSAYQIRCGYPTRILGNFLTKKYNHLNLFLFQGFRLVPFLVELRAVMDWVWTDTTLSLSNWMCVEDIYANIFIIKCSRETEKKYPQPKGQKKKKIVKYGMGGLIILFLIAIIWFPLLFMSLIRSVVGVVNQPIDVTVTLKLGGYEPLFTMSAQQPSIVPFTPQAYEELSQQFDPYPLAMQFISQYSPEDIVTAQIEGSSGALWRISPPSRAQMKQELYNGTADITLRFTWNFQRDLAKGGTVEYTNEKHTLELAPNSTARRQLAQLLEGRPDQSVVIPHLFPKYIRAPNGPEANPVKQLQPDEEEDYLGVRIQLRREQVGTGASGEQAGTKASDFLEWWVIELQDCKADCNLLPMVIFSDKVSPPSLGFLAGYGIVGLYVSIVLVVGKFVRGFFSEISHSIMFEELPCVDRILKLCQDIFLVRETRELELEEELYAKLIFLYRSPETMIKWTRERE
UniProt O55143: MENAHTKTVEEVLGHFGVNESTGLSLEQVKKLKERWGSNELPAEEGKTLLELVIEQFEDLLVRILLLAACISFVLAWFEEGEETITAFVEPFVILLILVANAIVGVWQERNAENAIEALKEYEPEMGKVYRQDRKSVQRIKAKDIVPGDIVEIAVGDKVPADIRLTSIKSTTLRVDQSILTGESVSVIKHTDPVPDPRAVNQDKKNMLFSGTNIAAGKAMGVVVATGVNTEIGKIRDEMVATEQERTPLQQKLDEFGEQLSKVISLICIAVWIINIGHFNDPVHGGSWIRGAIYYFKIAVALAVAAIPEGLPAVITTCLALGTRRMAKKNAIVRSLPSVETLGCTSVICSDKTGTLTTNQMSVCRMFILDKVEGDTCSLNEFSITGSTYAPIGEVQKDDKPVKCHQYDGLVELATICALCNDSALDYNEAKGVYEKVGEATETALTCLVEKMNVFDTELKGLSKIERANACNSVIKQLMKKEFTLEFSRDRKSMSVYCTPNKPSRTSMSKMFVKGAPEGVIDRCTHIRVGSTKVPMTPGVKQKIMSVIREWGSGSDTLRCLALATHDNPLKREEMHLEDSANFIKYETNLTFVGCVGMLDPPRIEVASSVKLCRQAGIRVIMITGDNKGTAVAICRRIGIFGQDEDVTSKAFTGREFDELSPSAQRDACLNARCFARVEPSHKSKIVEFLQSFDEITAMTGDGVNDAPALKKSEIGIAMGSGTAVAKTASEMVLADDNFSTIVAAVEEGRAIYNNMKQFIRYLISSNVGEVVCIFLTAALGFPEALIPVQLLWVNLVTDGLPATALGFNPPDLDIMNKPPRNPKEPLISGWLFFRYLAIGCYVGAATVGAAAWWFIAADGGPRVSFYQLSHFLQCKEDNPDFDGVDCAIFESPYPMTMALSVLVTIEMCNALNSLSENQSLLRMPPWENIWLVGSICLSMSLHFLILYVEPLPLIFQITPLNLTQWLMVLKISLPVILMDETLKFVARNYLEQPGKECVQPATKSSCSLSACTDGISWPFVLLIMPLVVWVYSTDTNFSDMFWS

Target: Piezo1-GST fusion protein (mouse Piezo1) (mouse) (UniProt E2JF22)
Test: affinity purification with mass spectrometry; GST or Piezo1-GST associated glutathione beads from transfected HEK293T cells incubated with C2C12 cell lysates; SDS-PAGE, silver staining, bands excised for mass spectrometry; only the target purified

In the case of “endogenously expressed SERCA2 in C2C12 cells (from UniProt O55143 1-1044)”, the binding is reported as “binds”.

These are yes or no findings as the source states them, for the method shown. In cells and extracts the contact can be indirect. A yes stands for co-enrichment or nearness to the bait. Other partners may have been found.
